Results are given in words; binding and its absence hold for the method and conditions named. Binding seen in cells or lysates may run through a third protein. Here binding means that the protein was enriched with, or labelled near, the bait; the list need not be complete.

Sequences of proteins named here, by UniProt entry; tags and fusion partners are left off.
UniProt O94913: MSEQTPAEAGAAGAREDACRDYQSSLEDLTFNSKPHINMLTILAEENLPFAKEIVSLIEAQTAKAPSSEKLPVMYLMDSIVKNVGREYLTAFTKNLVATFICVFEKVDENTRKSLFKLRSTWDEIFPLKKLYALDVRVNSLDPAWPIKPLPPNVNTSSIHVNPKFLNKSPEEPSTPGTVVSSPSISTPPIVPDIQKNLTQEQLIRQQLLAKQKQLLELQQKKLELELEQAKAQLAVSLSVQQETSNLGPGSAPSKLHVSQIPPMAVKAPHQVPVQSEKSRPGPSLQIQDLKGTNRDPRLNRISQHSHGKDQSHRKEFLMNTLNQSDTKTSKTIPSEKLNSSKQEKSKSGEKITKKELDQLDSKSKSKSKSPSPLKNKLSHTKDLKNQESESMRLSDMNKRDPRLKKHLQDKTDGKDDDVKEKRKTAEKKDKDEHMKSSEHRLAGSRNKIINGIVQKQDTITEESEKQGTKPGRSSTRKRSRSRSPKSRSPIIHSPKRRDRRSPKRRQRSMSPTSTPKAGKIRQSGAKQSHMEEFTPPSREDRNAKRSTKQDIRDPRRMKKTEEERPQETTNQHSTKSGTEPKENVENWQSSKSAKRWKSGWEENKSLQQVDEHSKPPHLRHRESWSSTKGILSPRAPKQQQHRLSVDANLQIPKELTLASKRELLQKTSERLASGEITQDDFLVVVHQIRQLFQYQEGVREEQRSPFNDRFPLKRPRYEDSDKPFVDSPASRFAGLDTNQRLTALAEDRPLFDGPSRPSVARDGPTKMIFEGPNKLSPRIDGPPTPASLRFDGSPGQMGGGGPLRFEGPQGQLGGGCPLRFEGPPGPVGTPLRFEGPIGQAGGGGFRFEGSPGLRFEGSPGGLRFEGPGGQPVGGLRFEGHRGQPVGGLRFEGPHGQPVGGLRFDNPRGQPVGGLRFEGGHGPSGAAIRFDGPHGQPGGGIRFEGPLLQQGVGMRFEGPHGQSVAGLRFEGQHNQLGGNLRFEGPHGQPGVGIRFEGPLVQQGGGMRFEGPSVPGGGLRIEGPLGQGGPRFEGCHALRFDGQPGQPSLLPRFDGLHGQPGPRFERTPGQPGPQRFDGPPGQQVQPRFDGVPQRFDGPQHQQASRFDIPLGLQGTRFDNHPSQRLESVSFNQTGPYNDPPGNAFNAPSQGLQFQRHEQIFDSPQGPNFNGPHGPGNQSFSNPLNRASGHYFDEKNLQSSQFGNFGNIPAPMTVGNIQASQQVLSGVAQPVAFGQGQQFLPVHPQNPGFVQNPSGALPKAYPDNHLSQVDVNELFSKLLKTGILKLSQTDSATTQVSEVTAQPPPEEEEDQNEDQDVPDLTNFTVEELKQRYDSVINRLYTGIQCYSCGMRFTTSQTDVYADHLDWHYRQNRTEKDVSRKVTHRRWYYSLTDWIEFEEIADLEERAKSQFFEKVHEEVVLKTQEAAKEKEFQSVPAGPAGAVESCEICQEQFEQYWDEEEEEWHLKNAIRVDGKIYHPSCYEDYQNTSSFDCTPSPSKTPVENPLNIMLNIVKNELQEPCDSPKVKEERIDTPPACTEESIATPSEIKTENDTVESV

In the assay the target is PCF11 (termination factor), endogenous (human (endogenous in HeLa)) (UniProt O94913). The assay is described as follows: affinity purification with mass spectrometry; PCF11-interacting proteins from HeLa cells analysed by MS.

For “WNK1 (with no lysine [K] 1) kinase, endogenous (from UniProt Q9H4A3-1 1-2382) (enzyme)”, the binding result is recorded as “binds”.

Values taken from publication PMC5749165.
